Data as given in patent publication US20240209080A1, “FOLR1 BINDING AGENTS, CONJUGATES THEREOF AND METHODS OF USING THE SAME” (PROFOUNDBIO US CO., priority 2021, published 2024).
These are yes or no findings as the source states them, for the method shown. Some results given as binding are weak or reduced against the parent protein; the word gives no strength.

Protein sequences, listed by entry. Tags and fused reporters are not part of them. Lines headed by an entry give the natural chain unless they say otherwise; changes in a name come on top. Residues count along the entry.
UniProt P15328: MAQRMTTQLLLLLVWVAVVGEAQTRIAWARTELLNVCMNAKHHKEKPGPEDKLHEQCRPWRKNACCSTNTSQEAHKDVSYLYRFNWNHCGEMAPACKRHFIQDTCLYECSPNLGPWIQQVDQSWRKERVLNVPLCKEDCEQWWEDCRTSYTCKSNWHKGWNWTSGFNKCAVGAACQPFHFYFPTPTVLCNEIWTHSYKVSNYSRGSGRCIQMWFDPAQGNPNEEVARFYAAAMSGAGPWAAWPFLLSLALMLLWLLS
human FOLR1 on cells (Hela, RPTEC/TERT1, OVCAR3, OV90, IGROV-1, JEG-3, KB, NCI-H441): residues 25-234 of P15328
human FOLR1 protein, His Tag (ACRO-FO1-H52H1): residues 25-233 of P15328

Experiments:
[1] = target: human FOLR1 on cells (Hela, RPTEC/TERT1, OVCAR3, OV90, IGROV-1, JEG-3, KB, NCI-H441) (human) (UniProt P15328); test: flow cytometry, HEK293 transfection supernatant on Hela cells, PE goat anti-human IgG
[2] = target: human FOLR1 protein, His Tag (ACRO-FO1-H52H1) (human) (UniProt P15328); test: ELISA, coated human FOLR1-His, transfection supernatant
[3] = target: human FOLR1 on cells (Hela, RPTEC/TERT1, OVCAR3, OV90, IGROV-1, JEG-3, KB, NCI-H441) (human) (UniProt P15328); test: flow cytometry, purified antibody on RPTEC/TERT1 cells, 50 to 0.00001 ug/ml
[4] = target: human FOLR1 on cells (Hela, RPTEC/TERT1, OVCAR3, OV90, IGROV-1, JEG-3, KB, NCI-H441) (human) (UniProt P15328); test: FACS on Hela and RPTEC/TERT1 cells, purified antibody
[5] = target: human FOLR1 on cells (Hela, RPTEC/TERT1, OVCAR3, OV90, IGROV-1, JEG-3, KB, NCI-H441) (human) (UniProt P15328); test: flow cytometry on Hela cells, transfection supernatant
[6] = target: cynomolgus FOLR1 protein, His Tag (ACRO, F01-C52H8) (cynomolgus); test: ELISA, coated cynomolgus FOLR1-His, transfection supernatant
[7] = target: human FOLR1 on cells (Hela, RPTEC/TERT1, OVCAR3, OV90, IGROV-1, JEG-3, KB, NCI-H441) (human) (UniProt P15328); test: flow cytometry on RPTEC/TERT1 cells, transfection supernatant
[8] = target: human FOLR1 on cells (Hela, RPTEC/TERT1, OVCAR3, OV90, IGROV-1, JEG-3, KB, NCI-H441) (human) (UniProt P15328); test: flow cytometry, purified antibody on Hela cells, 50 to 0.00001 ug/ml
[9] = target: human FOLR1 on cells (Hela, RPTEC/TERT1, OVCAR3, OV90, IGROV-1, JEG-3, KB, NCI-H441) (human) (UniProt P15328); test: flow cytometry, HEK293 transfection supernatant on RPTEC/TERT1 cells, PE goat anti-human IgG

Measured: binding

B1: anti-FOLR1 antibody F40 (antibody, V domains shown)
VH: EVQLLESGGGVVQPGRSLRLSCAASGFTFSSYAMHWVRQAPGKGLEWVAVISYDGSNKYYADSVKGRFIISRDNSKNTVYLQMNSLRAEDTAVYYCARPTYVFTYTGSSFDYWGQGTQVTVSS
VL: DIQVTQSPSSLSASLGDTVSITCRASRGLTDSVAWYQQKPGQAPKLLIYAASTLQSGVPSRFGGSGSGSYFTLTITSLQPEDVATYYCQNYKSAPWTFGQGTKVEIK
binds: all assays above
